Results published in PMC6118392, “VapC proteins from Mycobacterium tuberculosis share ribonuclease sequence specificity but differ in regulation and toxicity” (PLoS ONE, 2018).
Results are given in words; binding and its absence hold for the method and conditions named. Some results given as binding are weak or reduced against the parent protein; the word gives no strength. Where a sequence is shown, tags or fusion partners need not be part of it.

Sequences of proteins named here, by UniProt entry; tags and fusion partners are left off.
UniProt O07779: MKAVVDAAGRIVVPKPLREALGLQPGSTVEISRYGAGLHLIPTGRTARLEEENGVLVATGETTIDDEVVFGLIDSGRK

What was measured:
Test in all cases: co-purification (His-tag affinity, size exclusion)
[1] = biological target: T1, VapC27 (Mycobacterium tuberculosis) (UniProt P9WF83)
T1 sequence: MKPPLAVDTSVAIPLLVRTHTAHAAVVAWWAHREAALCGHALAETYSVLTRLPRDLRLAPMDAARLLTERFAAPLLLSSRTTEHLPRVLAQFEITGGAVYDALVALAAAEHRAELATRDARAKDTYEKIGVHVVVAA

[2] = biological target: T2, VapC1 (Mycobacterium tuberculosis) (UniProt P9WFC1)
T2 sequence: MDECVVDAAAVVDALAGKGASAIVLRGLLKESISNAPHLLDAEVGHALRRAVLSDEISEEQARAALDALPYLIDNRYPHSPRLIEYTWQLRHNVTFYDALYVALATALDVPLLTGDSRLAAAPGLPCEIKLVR

[3] = biological target: T3, VapC19 (Mycobacterium tuberculosis) (UniProt P9WF93)
T3 sequence: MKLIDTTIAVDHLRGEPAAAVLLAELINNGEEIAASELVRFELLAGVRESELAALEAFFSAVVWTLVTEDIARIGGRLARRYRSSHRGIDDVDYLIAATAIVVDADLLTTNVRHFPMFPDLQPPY

[4] = biological target: T4, VapC29 (Mycobacterium tuberculosis) (UniProt P9WF79)
T4 sequence: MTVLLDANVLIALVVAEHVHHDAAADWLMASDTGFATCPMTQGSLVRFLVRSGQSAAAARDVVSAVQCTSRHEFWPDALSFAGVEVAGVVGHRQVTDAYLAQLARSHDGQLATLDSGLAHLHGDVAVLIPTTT

[5] = biological target: T5, VapC39 (Mycobacterium tuberculosis) (UniProt P9WF63)
T5 sequence: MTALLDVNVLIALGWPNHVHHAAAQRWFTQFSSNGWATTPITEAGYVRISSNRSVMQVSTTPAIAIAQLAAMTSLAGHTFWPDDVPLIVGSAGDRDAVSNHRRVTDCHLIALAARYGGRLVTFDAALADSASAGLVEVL

## VapB27 (from UniProt O07779 1-78)
[1]
  binding: binds

B1: VapB1 (protein, UniProt P0CW29 1-79)
chain: MATIQVRDLPEDVAETYRRRATAAGQSLQTYMRTKLIEGVRGRDKAEAIEILEQALASTASPGISRETIEASRRELRGG
[2]
  binding: binds

B2: VapB19 (protein, UniProt P95006 1-85)
chain: MRTQVTLGKEELELLDRAAKASGASRSELIRRAIHRAYGTGSKQERLAALDHSRGSWRGRDFTGTEYVDAIRGDLNERLARLGLA
[3]
  binding: binds

B3: VapB29 (protein, UniProt P9WJ37 1-75)
chain: MRTTIDLPQDLHKQALAIARDTHRTLSETVADLMRRGLAANRPTALSSDPRTGLPLVSVGTVVTSEDVRSLEDEQ
[4]
  binding: binds

B4: VapB39 (protein, UniProt P9WJ23 1-74)
chain: MRTTLQIDDDVLEDARSIARSEGKSVGAVISELARRSLRPVGIVEVDGFPVFDVPPDAPTVTSEDVVRALEDDV
[5]
  binding: binds
